Laboratory results from paper doi:10.1101/2025.03.13.643120.
Results are given in words; binding and its absence hold for the method and conditions named. Some binding calls cover weakened binding; strength is not graded here.

Sequences of proteins named here, by UniProt entry; tags and fusion partners are left off. Residues count along the entry.
UniProt O43157, residues 1511-2135: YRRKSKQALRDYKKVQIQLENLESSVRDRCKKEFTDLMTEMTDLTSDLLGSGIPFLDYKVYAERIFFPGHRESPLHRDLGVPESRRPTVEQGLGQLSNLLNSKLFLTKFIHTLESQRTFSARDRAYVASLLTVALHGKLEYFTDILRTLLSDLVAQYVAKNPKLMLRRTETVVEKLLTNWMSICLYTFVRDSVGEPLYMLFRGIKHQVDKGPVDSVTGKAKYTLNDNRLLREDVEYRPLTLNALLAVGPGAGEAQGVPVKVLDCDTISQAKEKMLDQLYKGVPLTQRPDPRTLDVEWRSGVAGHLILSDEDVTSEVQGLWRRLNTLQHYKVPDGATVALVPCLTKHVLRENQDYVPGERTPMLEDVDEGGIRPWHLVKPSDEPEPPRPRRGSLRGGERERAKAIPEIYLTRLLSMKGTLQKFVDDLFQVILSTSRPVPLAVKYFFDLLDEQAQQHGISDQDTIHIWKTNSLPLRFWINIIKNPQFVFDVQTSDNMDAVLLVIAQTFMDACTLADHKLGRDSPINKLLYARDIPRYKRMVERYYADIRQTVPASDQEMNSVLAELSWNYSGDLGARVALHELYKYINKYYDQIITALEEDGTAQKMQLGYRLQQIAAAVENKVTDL
UniProt P61224: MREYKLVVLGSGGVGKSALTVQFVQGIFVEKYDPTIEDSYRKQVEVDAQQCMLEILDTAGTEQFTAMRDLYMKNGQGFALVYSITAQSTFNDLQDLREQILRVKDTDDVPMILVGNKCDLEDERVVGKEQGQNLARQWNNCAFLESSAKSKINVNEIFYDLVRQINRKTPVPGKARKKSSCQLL

B1: Rnd1 (protein, UniProt Q92730 1-232)
chain: MKERRAPQPVVARCKLVLVGDVQCGKTAMLQVLAKDCYPETYVPTVFENYTACLETEEQRVELSLWDTSGSPYYDNVRPLCYSDSDAVLLCFDISRPETVDSALKKWRTEILDYCPSTRVLLIGCKTDLRTDLSTLMELSHQKQAPISYEQGCAIAKQLGAEIYLEGSAFTSEKSIHSIFRTASMLCLNKPSPLPQKSPVRSLSKRLLHLPSRSELISSTFKKEKAKSCSIM

Columns and labels:
[1] = target: Plexin-B1 intracellular region (ICR) (UniProt O43157); assay: HDX-MS; plexin-B1 ICR alone against ternary mixtures plexin:Rac1.Q61L:Rap1b (~1:14.5:8.3) or plexin:Rnd1:Rap1b (~1:21.4:8.3); same buffers; exchange 10 sec, 25 min, 180 min; Acquity UPLC M-class with HDX manager; about 40% of plexin expected bound; both purified
[2] = target: Plexin-B1 intracellular region (ICR) (UniProt O43157); assay: HDX-MS; plexin-B1 ICR alone against binary mixtures with Rac1.Q61L or Rnd1 (no Rap1b); labeling buffer 20 mM Tris.HCl pH 7.1 (pD 7.5), 150 mM NaCl, 5% glycerol, 2 mM TCEP, 0.005% Tween-20, 4 mM MgCl2 in D2O; exchange 10 sec, 2.5 min, 25 min, 180 min; legend says pH 7.0, 25 °C; pepsin digestion; Synapt G2-Si; both purified

Molecule	binding [1]	binding [2]
Rap1b (from UniProt P61224 1-184)	binds	–
B1	–	binds
